Laboratory results from patent US20230035235A1.
Results are given in words; binding and its absence hold for the method and conditions named. For some of these results: Binding seen in cells or lysates may run through a third protein. Some binding calls cover weakened binding; strength is not graded here. For some of these results: Where a sequence is shown, tags or fusion partners need not be part of it.

Sequences of proteins named here, by UniProt entry; tags and fusion partners are left off. Residues count along the entry.
UniProt Q8TAQ2: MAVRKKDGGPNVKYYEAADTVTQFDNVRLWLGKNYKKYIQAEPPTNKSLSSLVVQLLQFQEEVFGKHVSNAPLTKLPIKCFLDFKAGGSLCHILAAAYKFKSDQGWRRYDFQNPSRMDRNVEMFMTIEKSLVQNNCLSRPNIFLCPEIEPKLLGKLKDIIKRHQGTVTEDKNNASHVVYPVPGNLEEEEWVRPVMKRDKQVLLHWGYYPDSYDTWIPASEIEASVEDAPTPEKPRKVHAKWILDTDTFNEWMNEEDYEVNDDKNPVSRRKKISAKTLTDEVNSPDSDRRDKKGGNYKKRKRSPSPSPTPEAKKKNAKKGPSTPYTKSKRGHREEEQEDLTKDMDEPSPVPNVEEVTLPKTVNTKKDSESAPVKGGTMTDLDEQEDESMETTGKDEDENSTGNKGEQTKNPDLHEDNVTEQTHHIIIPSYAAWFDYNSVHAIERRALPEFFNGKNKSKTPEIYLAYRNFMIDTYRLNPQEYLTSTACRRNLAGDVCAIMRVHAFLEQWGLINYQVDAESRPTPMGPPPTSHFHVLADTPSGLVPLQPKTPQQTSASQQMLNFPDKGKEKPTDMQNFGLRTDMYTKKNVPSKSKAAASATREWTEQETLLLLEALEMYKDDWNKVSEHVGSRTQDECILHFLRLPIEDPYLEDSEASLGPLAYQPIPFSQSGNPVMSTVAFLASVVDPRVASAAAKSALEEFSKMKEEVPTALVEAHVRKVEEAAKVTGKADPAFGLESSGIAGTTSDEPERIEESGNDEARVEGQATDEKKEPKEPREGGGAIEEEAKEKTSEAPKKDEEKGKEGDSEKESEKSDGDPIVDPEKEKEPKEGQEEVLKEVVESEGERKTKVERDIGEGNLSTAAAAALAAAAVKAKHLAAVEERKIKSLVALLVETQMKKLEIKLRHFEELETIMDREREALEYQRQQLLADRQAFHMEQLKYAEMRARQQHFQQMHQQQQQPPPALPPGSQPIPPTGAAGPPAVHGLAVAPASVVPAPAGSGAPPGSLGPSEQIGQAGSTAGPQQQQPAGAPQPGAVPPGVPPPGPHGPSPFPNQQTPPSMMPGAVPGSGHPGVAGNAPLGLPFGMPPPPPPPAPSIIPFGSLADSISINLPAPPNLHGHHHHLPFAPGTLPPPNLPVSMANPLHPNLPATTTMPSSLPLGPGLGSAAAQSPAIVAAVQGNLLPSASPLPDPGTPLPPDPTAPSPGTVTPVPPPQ
UniProt Q6STE5, residues 2-483: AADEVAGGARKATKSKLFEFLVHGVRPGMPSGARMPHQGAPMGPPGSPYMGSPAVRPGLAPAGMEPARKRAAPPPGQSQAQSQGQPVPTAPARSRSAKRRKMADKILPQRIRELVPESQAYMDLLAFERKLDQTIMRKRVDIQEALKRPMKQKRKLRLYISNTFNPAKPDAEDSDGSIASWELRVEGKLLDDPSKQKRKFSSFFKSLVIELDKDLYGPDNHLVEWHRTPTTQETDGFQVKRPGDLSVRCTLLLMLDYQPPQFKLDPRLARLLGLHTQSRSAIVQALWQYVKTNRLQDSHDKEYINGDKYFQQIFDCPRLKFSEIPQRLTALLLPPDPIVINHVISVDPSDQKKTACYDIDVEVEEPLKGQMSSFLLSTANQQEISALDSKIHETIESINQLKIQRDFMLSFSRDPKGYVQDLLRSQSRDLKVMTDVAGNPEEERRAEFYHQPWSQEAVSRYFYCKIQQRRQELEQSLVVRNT
UniProt Q92922, residues 2-1105: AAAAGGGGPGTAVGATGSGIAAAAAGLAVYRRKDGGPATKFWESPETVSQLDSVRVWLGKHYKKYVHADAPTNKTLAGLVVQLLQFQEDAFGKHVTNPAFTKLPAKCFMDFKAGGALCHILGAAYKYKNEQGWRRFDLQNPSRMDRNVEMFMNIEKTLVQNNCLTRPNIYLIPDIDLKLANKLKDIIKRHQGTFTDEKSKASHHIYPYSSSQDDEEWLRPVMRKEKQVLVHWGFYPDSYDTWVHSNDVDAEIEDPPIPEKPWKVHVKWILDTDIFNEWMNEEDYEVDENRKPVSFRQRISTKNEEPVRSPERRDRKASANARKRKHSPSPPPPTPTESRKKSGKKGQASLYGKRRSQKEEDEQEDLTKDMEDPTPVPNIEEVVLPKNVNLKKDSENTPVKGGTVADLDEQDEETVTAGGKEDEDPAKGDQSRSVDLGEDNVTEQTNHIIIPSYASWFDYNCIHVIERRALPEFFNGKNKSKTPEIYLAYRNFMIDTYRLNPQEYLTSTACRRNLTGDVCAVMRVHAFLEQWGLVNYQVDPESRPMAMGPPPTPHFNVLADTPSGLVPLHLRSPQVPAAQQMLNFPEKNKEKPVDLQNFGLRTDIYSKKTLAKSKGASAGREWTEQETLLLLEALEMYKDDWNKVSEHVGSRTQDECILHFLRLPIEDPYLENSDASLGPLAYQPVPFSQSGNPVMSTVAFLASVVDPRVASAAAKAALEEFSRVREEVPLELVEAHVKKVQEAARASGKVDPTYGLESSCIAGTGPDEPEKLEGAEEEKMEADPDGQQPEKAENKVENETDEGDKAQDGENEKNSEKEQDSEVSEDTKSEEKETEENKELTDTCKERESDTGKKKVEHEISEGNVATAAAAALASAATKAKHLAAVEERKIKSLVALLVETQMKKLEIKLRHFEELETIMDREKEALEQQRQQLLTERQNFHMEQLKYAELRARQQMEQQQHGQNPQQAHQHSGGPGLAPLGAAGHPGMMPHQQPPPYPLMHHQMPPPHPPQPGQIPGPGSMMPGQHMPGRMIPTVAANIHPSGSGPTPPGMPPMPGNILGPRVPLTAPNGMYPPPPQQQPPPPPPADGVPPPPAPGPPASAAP
UniProt Q92925: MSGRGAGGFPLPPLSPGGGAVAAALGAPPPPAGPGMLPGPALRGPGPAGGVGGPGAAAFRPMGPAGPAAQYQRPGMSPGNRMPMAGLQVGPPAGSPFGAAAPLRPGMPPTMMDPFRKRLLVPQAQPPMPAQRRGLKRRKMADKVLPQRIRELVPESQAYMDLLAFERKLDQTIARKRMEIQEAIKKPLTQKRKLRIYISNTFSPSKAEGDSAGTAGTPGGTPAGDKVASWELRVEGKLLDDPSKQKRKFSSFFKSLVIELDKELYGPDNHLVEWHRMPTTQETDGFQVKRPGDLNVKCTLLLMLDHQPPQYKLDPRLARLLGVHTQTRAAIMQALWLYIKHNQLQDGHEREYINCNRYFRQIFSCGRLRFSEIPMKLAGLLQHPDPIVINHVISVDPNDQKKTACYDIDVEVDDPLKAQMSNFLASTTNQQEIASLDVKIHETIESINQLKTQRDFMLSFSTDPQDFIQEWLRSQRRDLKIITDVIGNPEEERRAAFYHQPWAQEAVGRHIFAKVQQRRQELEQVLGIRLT
UniProt Q86U86: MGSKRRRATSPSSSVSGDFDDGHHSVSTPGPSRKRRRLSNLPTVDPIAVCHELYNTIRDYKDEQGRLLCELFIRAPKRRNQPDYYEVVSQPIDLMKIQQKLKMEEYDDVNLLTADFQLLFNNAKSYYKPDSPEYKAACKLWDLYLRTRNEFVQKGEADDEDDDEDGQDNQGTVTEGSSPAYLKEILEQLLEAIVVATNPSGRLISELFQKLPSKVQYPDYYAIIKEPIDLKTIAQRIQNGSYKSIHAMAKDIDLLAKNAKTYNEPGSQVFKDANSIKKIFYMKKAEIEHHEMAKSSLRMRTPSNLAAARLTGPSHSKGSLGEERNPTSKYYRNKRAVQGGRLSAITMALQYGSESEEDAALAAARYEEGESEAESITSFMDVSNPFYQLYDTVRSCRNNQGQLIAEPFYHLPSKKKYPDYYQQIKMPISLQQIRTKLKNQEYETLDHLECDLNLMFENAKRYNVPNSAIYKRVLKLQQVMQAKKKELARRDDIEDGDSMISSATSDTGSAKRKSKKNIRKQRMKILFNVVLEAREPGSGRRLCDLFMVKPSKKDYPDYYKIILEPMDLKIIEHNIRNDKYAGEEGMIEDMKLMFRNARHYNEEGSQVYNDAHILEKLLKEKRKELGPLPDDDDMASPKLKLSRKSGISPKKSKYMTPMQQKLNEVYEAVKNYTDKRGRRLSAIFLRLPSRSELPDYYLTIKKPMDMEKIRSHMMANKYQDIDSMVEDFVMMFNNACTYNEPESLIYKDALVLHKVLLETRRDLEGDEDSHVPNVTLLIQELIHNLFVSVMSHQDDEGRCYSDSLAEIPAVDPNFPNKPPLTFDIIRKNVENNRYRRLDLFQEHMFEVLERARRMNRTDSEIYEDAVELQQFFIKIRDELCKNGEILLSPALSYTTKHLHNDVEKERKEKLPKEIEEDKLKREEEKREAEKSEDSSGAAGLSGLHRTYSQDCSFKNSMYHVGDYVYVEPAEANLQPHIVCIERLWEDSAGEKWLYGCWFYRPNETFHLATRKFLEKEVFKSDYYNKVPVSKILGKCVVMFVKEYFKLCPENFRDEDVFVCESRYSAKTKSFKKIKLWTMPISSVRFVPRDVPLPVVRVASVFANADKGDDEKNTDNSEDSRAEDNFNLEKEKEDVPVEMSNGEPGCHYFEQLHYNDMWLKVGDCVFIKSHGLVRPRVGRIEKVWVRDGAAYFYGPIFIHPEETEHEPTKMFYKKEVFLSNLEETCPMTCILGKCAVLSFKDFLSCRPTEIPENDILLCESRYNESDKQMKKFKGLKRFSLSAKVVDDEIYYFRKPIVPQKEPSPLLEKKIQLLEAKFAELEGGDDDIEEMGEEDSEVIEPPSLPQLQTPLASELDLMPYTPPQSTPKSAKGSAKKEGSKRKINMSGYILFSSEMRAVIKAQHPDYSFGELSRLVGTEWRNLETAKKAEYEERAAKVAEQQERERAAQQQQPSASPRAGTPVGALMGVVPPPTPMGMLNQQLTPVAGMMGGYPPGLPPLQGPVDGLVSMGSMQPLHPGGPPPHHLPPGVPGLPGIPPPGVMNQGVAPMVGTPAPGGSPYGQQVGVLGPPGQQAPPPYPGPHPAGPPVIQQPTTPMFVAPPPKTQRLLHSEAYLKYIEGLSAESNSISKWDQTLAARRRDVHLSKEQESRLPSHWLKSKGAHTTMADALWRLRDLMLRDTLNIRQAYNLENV
UniProt Q969G3: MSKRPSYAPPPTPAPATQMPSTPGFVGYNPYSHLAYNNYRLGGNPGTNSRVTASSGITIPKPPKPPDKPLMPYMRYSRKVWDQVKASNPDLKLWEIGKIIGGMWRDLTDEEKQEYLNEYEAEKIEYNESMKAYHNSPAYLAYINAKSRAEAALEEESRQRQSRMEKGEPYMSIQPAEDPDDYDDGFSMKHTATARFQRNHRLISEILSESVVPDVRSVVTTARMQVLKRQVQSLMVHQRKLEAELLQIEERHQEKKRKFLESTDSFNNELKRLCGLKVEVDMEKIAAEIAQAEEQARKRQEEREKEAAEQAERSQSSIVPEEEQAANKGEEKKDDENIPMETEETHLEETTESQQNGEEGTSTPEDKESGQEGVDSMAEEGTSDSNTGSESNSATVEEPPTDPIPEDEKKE
UniProt O96019, residues 2-429: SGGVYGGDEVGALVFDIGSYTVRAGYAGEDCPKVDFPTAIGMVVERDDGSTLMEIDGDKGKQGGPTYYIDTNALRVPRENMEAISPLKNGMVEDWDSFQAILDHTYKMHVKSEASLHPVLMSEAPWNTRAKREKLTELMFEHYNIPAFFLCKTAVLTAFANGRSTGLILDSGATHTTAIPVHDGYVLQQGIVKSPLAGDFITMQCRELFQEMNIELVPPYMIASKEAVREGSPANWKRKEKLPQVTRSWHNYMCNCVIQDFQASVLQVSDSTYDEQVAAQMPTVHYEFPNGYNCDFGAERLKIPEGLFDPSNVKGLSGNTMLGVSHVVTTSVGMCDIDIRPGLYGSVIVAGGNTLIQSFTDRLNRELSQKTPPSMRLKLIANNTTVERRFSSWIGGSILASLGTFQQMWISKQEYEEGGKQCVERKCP
UniProt Q9VYG2: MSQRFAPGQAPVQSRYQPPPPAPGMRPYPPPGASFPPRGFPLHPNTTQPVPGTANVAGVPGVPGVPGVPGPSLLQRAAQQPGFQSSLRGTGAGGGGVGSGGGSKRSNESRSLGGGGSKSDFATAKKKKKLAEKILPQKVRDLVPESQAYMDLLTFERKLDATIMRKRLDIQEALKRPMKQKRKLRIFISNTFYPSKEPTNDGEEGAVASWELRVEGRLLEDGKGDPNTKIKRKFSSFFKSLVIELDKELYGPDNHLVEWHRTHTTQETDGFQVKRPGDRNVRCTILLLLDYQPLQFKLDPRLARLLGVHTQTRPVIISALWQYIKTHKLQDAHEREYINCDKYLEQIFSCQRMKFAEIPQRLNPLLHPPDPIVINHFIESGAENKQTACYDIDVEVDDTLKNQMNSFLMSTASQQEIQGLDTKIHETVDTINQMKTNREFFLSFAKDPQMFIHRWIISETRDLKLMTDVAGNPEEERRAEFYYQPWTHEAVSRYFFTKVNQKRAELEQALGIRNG

Key:
SMARCC2 (human) [1] = biological target: SMARCC2 (human) (UniProt Q8TAQ2); assay: inter-protein BS3 cross-links found by CX-MS in HA-PHF10-purified PBAF complexes from HEK-293T cells
SMARCD3 (human) [2] = biological target: SMARCD3 (human) (UniProt Q6STE5); assay: as above
SMARCD3 (human) [3] = biological target: SMARCD3 (human) (UniProt Q6STE5); assay: inter-protein BS3 crosslinks found by CX-MS in HA-PHF10-purified PBAF complexes (HEK-293T)
[4] = biological target: SMARCC1 (human (HEK-293T cells)) (UniProt Q92922); assay: BS3 CX-MS inter-protein crosslink listed for the pair; HA-BRD7-purified PBAF complexes from HEK-293T
[5] = biological target: SMARCD2 (SWI/SNF related, matrix associated, actin dependent regulator of chromatin subfamily D member 2) (human) (UniProt Q92925); assay: inter-protein BS3 crosslink found by CX-MS in HA-BRD7-purified PBAF complexes, HEK-293T
SMARCC1 (human) = SMARCC1 (human) (UniProt Q92922); assay: inter-protein BS3 crosslinks found by CX-MS in HA-PHF10-purified PBAF complexes (HEK-293T)
SMARCC2 (human) [6] = biological target: SMARCC2 (human) (UniProt Q8TAQ2); assay: as above
SMARCD2 (human) = SMARCD2 (human) (UniProt Q92925); assay: as above
HA-PHF10 (human) = biological target: T1, HA-PHF10 (human) (UniProt Q8WUB8); assay: as above
T1 sequence (looked up): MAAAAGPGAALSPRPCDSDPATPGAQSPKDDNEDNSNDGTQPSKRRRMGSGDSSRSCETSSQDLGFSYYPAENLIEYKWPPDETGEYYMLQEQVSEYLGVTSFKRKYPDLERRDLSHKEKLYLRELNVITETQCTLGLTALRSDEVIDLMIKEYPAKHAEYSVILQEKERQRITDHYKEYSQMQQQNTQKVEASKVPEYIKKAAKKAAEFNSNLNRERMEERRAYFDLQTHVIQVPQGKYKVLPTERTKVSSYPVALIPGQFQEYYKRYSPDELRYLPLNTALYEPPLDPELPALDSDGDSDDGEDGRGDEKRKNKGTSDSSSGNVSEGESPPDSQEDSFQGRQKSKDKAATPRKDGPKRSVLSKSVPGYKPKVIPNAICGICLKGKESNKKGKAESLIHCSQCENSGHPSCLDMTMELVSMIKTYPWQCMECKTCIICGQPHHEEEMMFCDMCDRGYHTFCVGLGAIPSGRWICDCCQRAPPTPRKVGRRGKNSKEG

[7] = biological target: PBRM1 (protein Polybromo-1) (human) (UniProt Q86U86); assay: CX-MS self-crosslinks; co-IP/immunoblot with GFP- and V5-tagged PBRM1 variants
[8] = biological target: T2, PHF10 (PHD finger protein 10) (human) (UniProt Q8WUB8); assay: inter-protein BS3 cross-links found by CX-MS in HA-BRD7-purified PBAF complexes (HEK-293T)
T2 sequence (looked up): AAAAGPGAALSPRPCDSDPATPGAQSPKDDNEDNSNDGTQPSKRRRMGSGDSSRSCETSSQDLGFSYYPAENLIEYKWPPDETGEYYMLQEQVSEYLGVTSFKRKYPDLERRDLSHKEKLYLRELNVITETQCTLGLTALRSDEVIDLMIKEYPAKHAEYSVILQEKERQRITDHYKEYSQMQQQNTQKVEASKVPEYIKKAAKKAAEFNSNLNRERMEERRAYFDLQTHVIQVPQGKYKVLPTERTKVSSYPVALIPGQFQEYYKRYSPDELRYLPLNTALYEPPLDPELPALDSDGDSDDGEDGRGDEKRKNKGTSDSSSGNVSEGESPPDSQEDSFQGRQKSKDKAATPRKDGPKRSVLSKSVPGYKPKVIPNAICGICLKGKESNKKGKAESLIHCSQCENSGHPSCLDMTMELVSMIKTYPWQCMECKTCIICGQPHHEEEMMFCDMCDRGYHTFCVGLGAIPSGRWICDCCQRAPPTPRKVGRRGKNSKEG

[9] = biological target: SMARCC1 (SWI/SNF related, matrix associated, actin dependent regulator of chromatin subfamily c member 1) (human) (UniProt Q92922); assay: as above
[10] = biological target: SMARCA2 (BRM/BAF190) (human) (UniProt P51531); assay: as above
[11] = biological target: SMARCC2 (SWI/SNF related, matrix associated, actin dependent regulator of chromatin subfamily c member 2) (human) (UniProt Q8TAQ2); assay: as above
[12] = biological target: SMARCA4 (SWI/SNF related, matrix associated, actin dependent regulator of chromatin, subfamily a, member 4) (human) (UniProt P51532); assay: inter-protein BS3 crosslinks found by CX-MS in Flag-HA-SS18-purified complexes (HEK-293T)
[13] = biological target: SMARCB1 (SWI/SNF related, matrix associated, actin dependent regulator of chromatin subfamily B member 1) (human) (UniProt Q12824); assay: inter-protein BS3 crosslink found by CX-MS in Flag-HA-SS18-purified complexes (HEK-293T)
SMARCA2 (human) [14] = biological target: SMARCA2 (human) (UniProt P51531); assay: as above
[15] = biological target: SMARCA2 (BRM/BAF190) (human) (UniProt P51531); assay: inter-protein BS3 crosslink, CX-MS of HA-PHF10-purified PBAF complexes from HEK-293T cells
[16] = biological target: Osa (D. melanogaster ARID1 ortholog) (D. melanogaster) (UniProt Q8IN94); assay: inter-protein BS3 crosslink found by CX-MS in BAP60-HA complexes from S2 cells
[17] = biological target: Brm (D. melanogaster BAP/PBAP ATPase subunit, BRM_DROME) (D. melanogaster) (UniProt P25439); assay: inter-protein BS3 crosslinks found by CX-MS in BAP60-HA complexes from S2 cells
[18] = biological target: SMARCE1 (SWI/SNF related, matrix associated, actin dependent regulator of chromatin subfamily E member 1) (human) (UniProt Q969G3); assay: inter-protein BS3 crosslinks found by CX-MS in HA-DPF2-purified BAF complexes (HEK-293T)
PBRM1 (human) = PBRM1 (human) (UniProt Q86U86); assay: inter-protein BS3 crosslinks (CX-MS), HA-BRD7-purified PBAF complexes from HEK-293T
SMARCA2 (human) [19] = biological target: SMARCA2 (human) (UniProt P51531); assay: as above
[20] = biological target: ACTL6A (Actin Like 6A) (human) (UniProt O96019); assay: inter-protein BS3 cross-link found by CX-MS in HA-BRD7-purified PBAF complexes (HEK-293T)
[21] = biological target: SMARCD3 (SWI/SNF related, matrix associated, actin dependent regulator of chromatin subfamily D member 3) (human) (UniProt Q6STE5); assay: inter-protein BS3 crosslink found by CX-MS in HA-BRD7-purified PBAF complexes, HEK-293T

Substance: ARID2 (from UniProt Q68CP9 2-1835)
- binding (SMARCC2 (human) [1]): binds
- binding (SMARCD3 (human) [2]): binds

Substance: SMARCC2 (from UniProt Q8TAQ2 1-1214)
- binding (SMARCD3 (human) [3]): binds

Substance: SMARCA2 (from UniProt P51531 1-1590) (enzyme)
- binding [4]: binds

Substance: SMARCA4 (SWI/SNF related, matrix associated, actin dependent regulator of chromatin, subfamily a, member 4) (from UniProt P51532 1-1647) (enzyme)
- binding [5]: binds

Substance: PBRM1 (from UniProt Q86U86 1-1689)
- binding (SMARCC1 (human)): binds
- binding (SMARCC2 (human) [6]): binds
- binding (SMARCD2 (human)): binds
- binding (HA-PHF10 (human)): binds

Substance: PBRM1 (protein Polybromo-1) (from UniProt Q86U86 1-1689)
- binding [7]: binds
- binding [8]: binds
- binding [9]: binds
- binding [10]: binds
- binding [11]: binds

Substance: BCL7C (BCL Tumor Suppressor 7C) (from UniProt Q8WUZ0 1-217)
- binding [12]: binds
- binding [13]: binds
- binding (SMARCA2 (human) [14]): binds

Substance: ACTL6A (Actin Like 6A) (from UniProt O96019 2-429)
- binding [15]: binds

Substance: BAP60-HA (D. melanogaster SMARCD1 ortholog with HA tag) (from UniProt Q9VYG2 1-515)
- binding [16]: binds
- binding [17]: binds

Substance: SMARCD2 (SWI/SNF related, matrix associated, actin dependent regulator of chromatin subfamily D member 2) (from UniProt Q92925 1-531)
- binding [18]: binds

Substance: ACTL6A (from UniProt O96019 2-429)
- binding (PBRM1 (human)): binds
- binding (SMARCA2 (human) [19]): binds

Substance: ACTBL2 (from UniProt Q562R1 1-376)
- binding [20]: binds

Substance: SMARCC1 (SWI/SNF related, matrix associated, actin dependent regulator of chromatin subfamily c member 1) (from UniProt Q92922 2-1105)
- binding [21]: binds
